Data taken from the supplement of paper PMC10849652.
The other results are listed elsewhere or left out.

Protein sequences, listed by entry. Tags and fused reporters are not part of them. Lines headed by an entry give the natural chain unless they say otherwise; changes in a name come on top.
UniProt P47224: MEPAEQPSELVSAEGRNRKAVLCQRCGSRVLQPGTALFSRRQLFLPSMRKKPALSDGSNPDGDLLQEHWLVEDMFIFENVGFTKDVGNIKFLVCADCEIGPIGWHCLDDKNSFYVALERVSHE
UniProt Q9H6Z4: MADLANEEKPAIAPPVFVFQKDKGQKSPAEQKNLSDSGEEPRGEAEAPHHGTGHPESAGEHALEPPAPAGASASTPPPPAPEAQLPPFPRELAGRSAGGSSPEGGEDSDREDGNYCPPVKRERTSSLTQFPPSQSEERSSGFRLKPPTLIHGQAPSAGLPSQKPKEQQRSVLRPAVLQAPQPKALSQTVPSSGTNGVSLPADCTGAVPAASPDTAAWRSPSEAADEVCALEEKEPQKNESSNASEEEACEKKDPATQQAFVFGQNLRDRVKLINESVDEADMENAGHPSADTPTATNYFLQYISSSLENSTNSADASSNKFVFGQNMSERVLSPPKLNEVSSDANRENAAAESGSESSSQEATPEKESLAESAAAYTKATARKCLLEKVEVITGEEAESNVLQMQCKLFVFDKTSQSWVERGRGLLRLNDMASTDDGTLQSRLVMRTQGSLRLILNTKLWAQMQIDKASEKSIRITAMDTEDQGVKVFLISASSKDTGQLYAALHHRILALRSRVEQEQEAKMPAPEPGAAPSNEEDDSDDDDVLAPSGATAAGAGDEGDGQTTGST
UniProt O60671: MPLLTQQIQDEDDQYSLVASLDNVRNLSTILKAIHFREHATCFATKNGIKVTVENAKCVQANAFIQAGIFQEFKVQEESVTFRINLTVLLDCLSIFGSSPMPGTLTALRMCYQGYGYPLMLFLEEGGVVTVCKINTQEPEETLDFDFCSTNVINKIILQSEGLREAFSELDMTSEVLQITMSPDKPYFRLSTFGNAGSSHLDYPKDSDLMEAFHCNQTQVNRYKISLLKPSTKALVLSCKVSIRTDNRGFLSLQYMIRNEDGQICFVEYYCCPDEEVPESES
UniProt Q96E17: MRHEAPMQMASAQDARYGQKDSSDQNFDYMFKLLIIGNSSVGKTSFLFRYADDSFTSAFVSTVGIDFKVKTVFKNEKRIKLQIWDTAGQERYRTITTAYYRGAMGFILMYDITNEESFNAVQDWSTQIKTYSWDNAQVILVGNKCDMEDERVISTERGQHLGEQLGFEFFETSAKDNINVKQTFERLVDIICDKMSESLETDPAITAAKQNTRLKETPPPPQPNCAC
UniProt Q99638: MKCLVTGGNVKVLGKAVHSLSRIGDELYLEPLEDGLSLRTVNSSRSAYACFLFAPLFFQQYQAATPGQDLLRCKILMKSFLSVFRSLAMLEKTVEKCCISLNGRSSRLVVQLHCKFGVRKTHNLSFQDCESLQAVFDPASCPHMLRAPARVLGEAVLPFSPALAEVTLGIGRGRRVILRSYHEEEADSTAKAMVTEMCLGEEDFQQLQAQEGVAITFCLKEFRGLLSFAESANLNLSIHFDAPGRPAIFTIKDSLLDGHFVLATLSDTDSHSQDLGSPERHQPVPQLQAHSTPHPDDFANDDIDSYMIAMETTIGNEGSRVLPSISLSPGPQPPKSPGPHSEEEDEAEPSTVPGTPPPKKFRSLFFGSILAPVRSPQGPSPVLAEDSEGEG
UniProt Q9H0U4: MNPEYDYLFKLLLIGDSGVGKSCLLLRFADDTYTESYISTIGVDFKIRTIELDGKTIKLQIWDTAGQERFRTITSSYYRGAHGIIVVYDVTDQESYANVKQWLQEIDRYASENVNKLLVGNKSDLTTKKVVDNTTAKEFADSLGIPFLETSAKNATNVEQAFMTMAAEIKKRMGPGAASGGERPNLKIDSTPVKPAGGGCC
UniProt P51153: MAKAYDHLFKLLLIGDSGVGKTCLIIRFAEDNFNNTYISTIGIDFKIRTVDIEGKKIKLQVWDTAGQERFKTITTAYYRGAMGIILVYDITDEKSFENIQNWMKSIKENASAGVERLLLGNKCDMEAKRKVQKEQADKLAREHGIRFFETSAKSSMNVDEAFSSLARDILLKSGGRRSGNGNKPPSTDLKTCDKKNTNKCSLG
UniProt O14966: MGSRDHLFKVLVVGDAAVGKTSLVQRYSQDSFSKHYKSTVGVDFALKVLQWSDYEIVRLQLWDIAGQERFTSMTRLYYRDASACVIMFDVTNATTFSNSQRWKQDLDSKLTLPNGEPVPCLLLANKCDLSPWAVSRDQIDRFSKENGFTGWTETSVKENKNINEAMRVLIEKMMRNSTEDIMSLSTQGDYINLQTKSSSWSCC
UniProt P78406: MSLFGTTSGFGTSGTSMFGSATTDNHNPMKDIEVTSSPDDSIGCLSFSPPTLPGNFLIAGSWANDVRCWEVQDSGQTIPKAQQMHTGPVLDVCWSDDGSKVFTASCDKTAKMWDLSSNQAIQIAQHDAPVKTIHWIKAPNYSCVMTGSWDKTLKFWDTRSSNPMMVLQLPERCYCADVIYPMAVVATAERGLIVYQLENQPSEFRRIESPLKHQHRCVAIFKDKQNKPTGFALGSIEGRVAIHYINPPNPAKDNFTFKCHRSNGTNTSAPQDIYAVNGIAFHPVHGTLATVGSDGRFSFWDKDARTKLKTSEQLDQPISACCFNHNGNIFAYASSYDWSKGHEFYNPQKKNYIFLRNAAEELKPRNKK
UniProt P20936: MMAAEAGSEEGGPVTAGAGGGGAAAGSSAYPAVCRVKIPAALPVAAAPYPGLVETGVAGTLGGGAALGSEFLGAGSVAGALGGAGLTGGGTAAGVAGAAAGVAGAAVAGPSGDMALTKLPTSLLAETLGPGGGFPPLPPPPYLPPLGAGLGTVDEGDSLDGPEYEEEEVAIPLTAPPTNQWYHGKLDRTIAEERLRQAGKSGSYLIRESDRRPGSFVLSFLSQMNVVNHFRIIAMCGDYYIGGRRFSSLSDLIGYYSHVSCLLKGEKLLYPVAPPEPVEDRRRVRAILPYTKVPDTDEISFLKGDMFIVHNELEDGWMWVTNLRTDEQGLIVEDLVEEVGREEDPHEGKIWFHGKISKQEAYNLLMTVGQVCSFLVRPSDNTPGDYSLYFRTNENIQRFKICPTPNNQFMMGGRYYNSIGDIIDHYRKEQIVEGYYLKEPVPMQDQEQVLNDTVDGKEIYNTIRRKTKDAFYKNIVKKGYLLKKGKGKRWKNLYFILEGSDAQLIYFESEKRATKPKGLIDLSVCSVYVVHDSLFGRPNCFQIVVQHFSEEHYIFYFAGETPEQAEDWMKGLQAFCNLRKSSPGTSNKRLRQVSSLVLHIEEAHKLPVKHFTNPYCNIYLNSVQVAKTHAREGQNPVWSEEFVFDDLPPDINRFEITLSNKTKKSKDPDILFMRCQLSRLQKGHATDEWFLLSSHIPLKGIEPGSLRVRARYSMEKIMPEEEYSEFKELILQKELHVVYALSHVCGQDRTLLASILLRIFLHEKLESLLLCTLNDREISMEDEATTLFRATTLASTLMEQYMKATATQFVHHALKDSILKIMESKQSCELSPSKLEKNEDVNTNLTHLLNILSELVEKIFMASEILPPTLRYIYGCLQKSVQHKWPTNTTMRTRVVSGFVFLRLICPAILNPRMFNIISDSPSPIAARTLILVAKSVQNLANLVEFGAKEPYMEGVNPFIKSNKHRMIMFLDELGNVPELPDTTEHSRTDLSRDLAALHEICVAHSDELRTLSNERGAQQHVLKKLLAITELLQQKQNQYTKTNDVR
UniProt P11234: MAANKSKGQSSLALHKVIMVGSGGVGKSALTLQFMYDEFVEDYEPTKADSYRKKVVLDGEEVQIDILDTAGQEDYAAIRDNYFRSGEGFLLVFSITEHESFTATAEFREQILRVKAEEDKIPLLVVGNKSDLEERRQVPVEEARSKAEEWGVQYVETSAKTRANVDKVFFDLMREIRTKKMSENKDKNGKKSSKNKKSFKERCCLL
UniProt Q53S08: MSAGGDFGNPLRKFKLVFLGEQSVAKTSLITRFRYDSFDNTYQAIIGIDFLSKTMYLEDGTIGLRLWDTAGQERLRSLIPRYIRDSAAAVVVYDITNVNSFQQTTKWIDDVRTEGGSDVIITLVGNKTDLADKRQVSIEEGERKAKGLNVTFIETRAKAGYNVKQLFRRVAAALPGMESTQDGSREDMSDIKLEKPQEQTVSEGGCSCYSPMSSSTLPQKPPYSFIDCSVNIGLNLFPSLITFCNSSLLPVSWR
UniProt Q6GYQ0: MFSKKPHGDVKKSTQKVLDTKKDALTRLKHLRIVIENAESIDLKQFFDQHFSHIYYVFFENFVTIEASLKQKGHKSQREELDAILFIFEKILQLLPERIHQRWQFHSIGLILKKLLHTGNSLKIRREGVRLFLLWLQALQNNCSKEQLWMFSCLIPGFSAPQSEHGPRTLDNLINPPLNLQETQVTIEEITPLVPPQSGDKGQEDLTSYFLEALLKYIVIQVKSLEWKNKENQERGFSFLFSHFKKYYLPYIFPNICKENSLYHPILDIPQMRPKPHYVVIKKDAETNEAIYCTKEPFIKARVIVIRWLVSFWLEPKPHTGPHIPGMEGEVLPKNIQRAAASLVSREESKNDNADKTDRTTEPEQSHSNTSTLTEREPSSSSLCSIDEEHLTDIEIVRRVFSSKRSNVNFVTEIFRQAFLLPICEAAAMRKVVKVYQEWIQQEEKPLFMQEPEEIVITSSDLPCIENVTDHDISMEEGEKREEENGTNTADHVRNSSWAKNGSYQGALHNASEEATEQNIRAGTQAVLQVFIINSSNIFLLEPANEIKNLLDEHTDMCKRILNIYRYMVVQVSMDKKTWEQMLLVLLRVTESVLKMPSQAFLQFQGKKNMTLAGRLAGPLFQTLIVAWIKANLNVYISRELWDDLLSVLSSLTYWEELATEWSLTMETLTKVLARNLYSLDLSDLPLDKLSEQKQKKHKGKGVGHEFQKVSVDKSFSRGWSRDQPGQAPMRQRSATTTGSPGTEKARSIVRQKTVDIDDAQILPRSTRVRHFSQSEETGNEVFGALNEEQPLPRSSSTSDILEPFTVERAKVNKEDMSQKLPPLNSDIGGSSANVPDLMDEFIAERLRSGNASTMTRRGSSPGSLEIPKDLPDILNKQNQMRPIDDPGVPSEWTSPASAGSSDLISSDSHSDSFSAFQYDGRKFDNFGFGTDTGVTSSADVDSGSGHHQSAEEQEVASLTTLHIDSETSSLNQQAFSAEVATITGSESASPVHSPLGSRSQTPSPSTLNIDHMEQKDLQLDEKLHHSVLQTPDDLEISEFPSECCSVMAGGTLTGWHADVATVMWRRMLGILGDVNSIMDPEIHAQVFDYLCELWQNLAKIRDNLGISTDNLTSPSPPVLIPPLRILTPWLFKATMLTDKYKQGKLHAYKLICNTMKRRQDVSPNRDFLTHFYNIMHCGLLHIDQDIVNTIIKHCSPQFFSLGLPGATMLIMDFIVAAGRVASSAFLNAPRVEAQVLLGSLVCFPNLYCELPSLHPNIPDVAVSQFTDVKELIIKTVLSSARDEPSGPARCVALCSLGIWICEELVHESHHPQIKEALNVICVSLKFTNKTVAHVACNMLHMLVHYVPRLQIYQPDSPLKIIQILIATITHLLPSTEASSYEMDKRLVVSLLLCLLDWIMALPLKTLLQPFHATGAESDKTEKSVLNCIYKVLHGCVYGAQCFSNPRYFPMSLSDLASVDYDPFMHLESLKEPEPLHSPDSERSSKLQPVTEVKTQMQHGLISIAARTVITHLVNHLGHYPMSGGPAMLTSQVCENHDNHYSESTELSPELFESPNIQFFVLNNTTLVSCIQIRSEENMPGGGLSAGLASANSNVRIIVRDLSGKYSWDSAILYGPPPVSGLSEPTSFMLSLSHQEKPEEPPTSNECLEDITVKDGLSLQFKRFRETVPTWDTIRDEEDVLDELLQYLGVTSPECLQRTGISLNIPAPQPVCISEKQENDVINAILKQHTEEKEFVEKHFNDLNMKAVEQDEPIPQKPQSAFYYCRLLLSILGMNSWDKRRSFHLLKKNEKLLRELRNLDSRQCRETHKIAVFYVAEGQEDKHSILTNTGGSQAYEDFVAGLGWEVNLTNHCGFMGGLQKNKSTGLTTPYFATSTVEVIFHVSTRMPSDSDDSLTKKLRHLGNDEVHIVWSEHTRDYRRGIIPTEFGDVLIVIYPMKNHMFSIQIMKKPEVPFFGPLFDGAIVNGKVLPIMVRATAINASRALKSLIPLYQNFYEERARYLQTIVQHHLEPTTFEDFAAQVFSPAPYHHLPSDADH

Key:
Experiment in all cases: log2 fold change, soluble protein after heating vs DMSO (PISA); higher = thermal stabilisation; K562 cells, 10 uM, 30 min; active = over 0.2 and 3.5 SD of the protein, either way, in both replicates (recomputed)
[1] = compound: CN1CCN(CCOc2cc(OC3CCOCC3)c3c(Nc4c(Cl)ccc5c4OCO5)ncnc3c2)CC1 [saracatinib]
Summary of the method: (§1)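 Thermal stability values are relative to control samples and come from duplicates. They are expressed as log2 fold changes. For measurement, K562 cells (2×10^6 cells/mL) received 10 μM compound for 30 min, and aliquots were heated for 3 min over 48°C-58°C, pooled, and extracted at 4°C in PBS with 0.5% NP-40. Soluble protein, the supernatant after 21,000xg for 90 min, was quantified by TMTpro 16plex LC-MS/MS with equalised channel sums.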

[2] = compound: CN1CCN(c2nc(C3=C(c4c[nH]c5ccccc45)C(=O)NC3=O)c3ccccc3n2)CC1 [sotrastaurin]
Summary of the method: as §1

[3] = compound: CN1CC[C@H](c2c(O)cc(O)c3c(=O)cc(-c4ccccc4Cl)oc23)[C@H](O)C1 [alvocidib]
Summary of the method: as §1

[4] = compound: CN1CCc2c(c3ccccc3n2Cc2ccc(C(=O)NO)cc2)C1 [Tubastatin A]
Summary of the method: as §1

[5] = compound: CNC(=O)C1=CC=CC=C1NC2=NC(=NC=C2Cl)NC3=C(C=C(C=C3)N4CCOCC4)OC
Summary of the method: as §1

[6] = compound: CNC(=O)c1ccc(Nc2ncc(C(F)(F)F)c(NCc3nccnc3N(C)S(C)(=O)=O)n2)cc1 [defactinib]
Summary of the method: as §1

[7] = compound: CNCc1ccc(-c2[nH]c3cc(F)cc4c3c2CCNC4=O)cc1 [rucaparib]
Summary of the method: as §1

[8] = compound: CNc1nc(-c2ccc3c(N)n[nH]c3c2)cc(N2C[C@@H](C(=O)NC3CCCCC3)CC[C@H]2C)n1
Summary of the method: as §1

[9] = compound: COC(=O)N[C@@H](C)CNc1nccc(-c2cn(C(C)C)nc2-c2cc(Cl)cc(NS(C)(=O)=O)c2F)n1 [encorafenib]
Summary of the method: as §1

[10] = compound: COC(=O)[C@H](CCSC)NC(=O)C1=C(C=C(C=C1)NC[C@H](CS)N)C2=CC=CC=C2
Summary of the method: as §1

[11] = compound: COC1=CC=C(C=C1)CN2C=CC3=C2C=C(C=C3)C(=O)NO
Summary of the method: as §1

[12] = compound: CON(C)C(=O)N1N=C(c2cc(F)ccc2F)S[C@@]1(CCCN)c1ccccc1 [filanesib]
Summary of the method: as §1

[13] = compound: CO[C@H]1C[C@@H]2CC[C@@H](C)[C@@](O)(O2)C(=O)C(=O)N2CCCC[C@H]2C(=O)O[C@H]([C@H](C)C[C@@H]2CC[C@H](n3cnnn3)[C@H](OC)C2)CC(=O)[C@H](C)/C=C(\C)[C@@H](O)[C@@H](OC)C(=O)[C@H](C)C[C@H](C)/C=C/C=C/C=C/1C [zotarolimus]
Summary of the method: as §1

[14] = compound: COc1cc(C(=O)O)ccc1NC(=O)[C@@H]1N[C@@H](CC(C)(C)C)[C@](C#N)(c2ccc(Cl)cc2F)[C@H]1c1cccc(Cl)c1F [idasanutlin]
Summary of the method: as §1

[15] = compound: COc1cc(Nc2ncc3c(n2)-c2ccc(Cl)cc2C(c2c(F)cccc2OC)=NC3)ccc1C(=O)O [alisertib]
Summary of the method: as §1

[16] = compound: COc1cc2nc(-c3cc(F)ccc3O)nc(N[C@@H]3CNC[C@H]3C(C)(C)O)c2cc1OC
Summary of the method: as §1

[17] = compound: COc1cc2ncnc(Nc3ccc(F)c(Cl)c3)c2cc1OCCCN1CCOCC1 [gefitinib]
Summary of the method: as §1

[18] = compound: COc1cccc2cc(-c3nc([C@H]4CC[C@H](C(=O)O)CC4)n4ncnc(N)c34)[nH]c12
Summary of the method: as §1

[19] = compound: CS(=O)(=O)CCNCc1ccc(-c2ccc3ncnc(Nc4ccc(OCc5cccc(F)c5)c(Cl)c4)c3c2)o1 [lapatinib]
Summary of the method: as §1

[20] = compound: CS(=O)(=O)N1CCN(Cc2cc3nc(-c4cccc5[nH]ncc45)nc(N4CCOCC4)c3s2)CC1 [pictilisib]
Summary of the method: as §1

Measured: log2 fold change

RBM10 isoform 5 (UniProt P98175)
inactive: [1] -0.045 | [2] 0.014 | [3] 0.03 | [4] 0.081 | [5] -0.046 | [6] 0.032 | [7] 0.135 | [8] -0.063 | [9] 0.055 | [10] -0.026 | [11] -0.104 | [12] 0.21 | [13] -0.002 | [14] 0.16 | [15] 0.263 | [16] 0.048 | [17] 0.034 | [18] 0.004 | [19] 0.042 | [20] 0.126

RABIF (UniProt P47224)
inactive: [1] 0.058 | [2] -0.015 | [3] -0.056 | [4] -0.049 | [5] 0.045 | [6] 0.044 | [7] 0.093 | [8] -0.001 | [9] -0.069 | [10] -0.017 | [11] 0.092 | [12] 0.041 | [13] 0.03 | [14] 0.02 | [15] -0.151 | [16] -0.016 | [17] -0.018 | [18] -0.015 | [19] 0.061 | [20] -0.057

RANBP3 (UniProt Q9H6Z4)
inactive: [1] 0.035 | [2] 0.002 | [3] -0.045 | [4] -0.006 | [5] -0.01 | [6] -0.013 | [7] -0.027 | [8] -0.027 | [9] -0.002 | [10] 0.034 | [11] 0.051 | [12] -0.041 | [13] 0.007 | [14] -0.042 | [15] -0.058 | [16] -0.042 | [17] -0.011 | [18] 0.043 | [19] 0.007 | [20] -0.016

RAD1 (UniProt O60671)
inactive: [1] 0.073 | [2] -0.036 | [3] -0.001 | [4] -0.079 | [5] 0 | [6] -0.025 | [7] 0.065 | [8] -0.055 | [9] -0.018 | [10] -0.025 | [11] 0.018 | [12] -0.055 | [13] -0.012 | [14] -0.028 | [15] -0.054 | [16] -0.003 | [17] 0.04 | [18] 0.006 | [19] 0.026 | [20] -0.083

RAB3C (UniProt Q96E17)
inactive: [1] 0.101 | [2] 0.042 | [3] 0.006 | [4] -0.11 | [5] 0.014 | [6] 0.01 | [7] 0.076 | [8] -0.033 | [9] -0.026 | [10] 0.052 | [11] 0.011 | [12] -0.07 | [13] -0.038 | [14] 0.014 | [15] -0.148 | [16] 0.034 | [17] 0.012 | [18] 0.004 | [19] -0.002 | [20] 0.059

RAD9A (UniProt Q99638)
inactive: [1] 0.082 | [2] 0.024 | [3] -0.024 | [4] -0.046 | [5] -0.038 | [6] 0.004 | [7] 0.046 | [8] -0.056 | [9] -0.005 | [10] -0.022 | [11] -0.05 | [12] -0.053 | [13] -0.036 | [14] -0.032 | [15] -0.08 | [16] -0.027 | [17] -0.034 | [18] 0.017 | [19] 0.057 | [20] 0.405

RAB1B (UniProt Q9H0U4)
inactive: [1] 0.043 | [2] 0.018 | [3] 0.05 | [4] -0.031 | [5] -0.006 | [6] 0.002 | [7] -0.143 | [8] -0.064 | [9] 0.008 | [10] 0.012 | [11] 0.062 | [12] -0.084 | [13] -0.067 | [14] -0.003 | [15] 0.028 | [16] 0.06 | [17] 0.035 | [18] 0.098 | [19] -0.108 | [20] -0.003

RAC2 (UniProt P15153)
inactive: [1] -0.001 | [2] 0.031 | [3] 0.05 | [4] -0.007 | [5] 0.017 | [6] 0.033 | [7] -0.036 | [8] -0.026 | [9] -0.009 | [10] 0.017 | [11] 0.048 | [12] 0.015 | [13] -0.029 | [14] -0.006 | [15] -0.109 | [16] 0.097 | [17] -0.002 | [18] 0.004 | [19] -0.011 | [20] 0.009

RAB13 (UniProt P51153)
inactive: [1] 0.115 | [2] 0 | [3] -0.051 | [4] -0.104 | [5] 0.028 | [6] -0.003 | [7] -0.068 | [8] 0.006 | [9] 0.039 | [10] 0.02 | [11] -0.029 | [12] -0.107 | [13] 0.003 | [14] -0.026 | [15] -0.049 | [16] -0.107 | [17] 0 | [18] -0.003 | [19] 0.02 | [20] -0.034

RAP1B (UniProt F5GZG1)
inactive: [1] 0.029 | [2] 0.031 | [3] -0.124 | [4] -0.138 | [5] -0.003 | [6] -0.025 | [7] -0.029 | [8] -0.023 | [9] -0.005 | [10] -0.169 | [11] -0.064 | [12] -0.096 | [13] -0.013 | [14] -0.026 | [15] -0.114 | [16] 0.29 | [17] 0.007 | [18] 0.134 | [19] -0.126

RAB29 (UniProt O14966)
inactive: [1] 0.105 | [2] 0.082 | [3] -0.041 | [4] -0.067 | [5] 0.001 | [6] -0.01 | [7] 0.012 | [8] 0.007 | [9] -0.01 | [10] -0.054 | [11] -0.02 | [12] -0.018 | [13] 0.048 | [14] -0.096 | [15] 0.043 | [16] 0.08 | [17] 0.028 | [18] 0.054 | [19] -0.07 | [20] -0.053

3 neighbouring records already listed:
RAD1 (UniProt O60671)
inactive: [1] 0.073 | [2] -0.036 | [3] -0.001 | [4] -0.079 | [5] 0 | [6] -0.025 | [7] 0.065 | [8] -0.055 | [9] -0.018 | [10] -0.025 | [11] 0.018 | [12] -0.055 | [13] -0.012 | [14] -0.028 | [15] -0.054 | [16] -0.003 | [17] 0.04 | [18] 0.006 | [19] 0.026 | [20] -0.083

RAB3C (UniProt Q96E17)
inactive: [1] 0.101 | [2] 0.042 | [3] 0.006 | [4] -0.11 | [5] 0.014 | [6] 0.01 | [7] 0.076 | [8] -0.033 | [9] -0.026 | [10] 0.052 | [11] 0.011 | [12] -0.07 | [13] -0.038 | [14] 0.014 | [15] -0.148 | [16] 0.034 | [17] 0.012 | [18] 0.004 | [19] -0.002 | [20] 0.059

RAD9A (UniProt Q99638)
inactive: [1] 0.082 | [2] 0.024 | [3] -0.024 | [4] -0.046 | [5] -0.038 | [6] 0.004 | [7] 0.046 | [8] -0.056 | [9] -0.005 | [10] -0.022 | [11] -0.05 | [12] -0.053 | [13] -0.036 | [14] -0.032 | [15] -0.08 | [16] -0.027 | [17] -0.034 | [18] 0.017 | [19] 0.057 | [20] 0.405

Following part:

RAE1 (UniProt P78406)
inactive: [1] -0.051 | [2] 0 | [3] -0.056 | [4] -0.011 | [5] 0.052 | [6] -0.012 | [7] 0.102 | [8] 0.201 | [9] 0.072 | [10] -0.046 | [11] 0.107 | [12] 0.131 | [13] 0.036 | [14] 0.05 | [15] 0.025 | [16] -0.013 | [17] 0.048 | [18] -0.143 | [19] 0.053 | [20] -0.04

RASA1 (UniProt P20936)
inactive: [1] 0.165 | [2] -0.041 | [3] 0.043 | [4] -0.025 | [5] 0.062 | [6] -0.049 | [7] -0.334 | [8] 0.003 | [9] 0.386 | [10] 0.031 | [11] -0.177 | [12] -0.047 | [13] 0.112 | [14] -0.44 | [15] -0.108 | [16] 0.109 | [17] 0.002 | [18] 0.034 | [19] -0.091

RALB isoform 2 (UniProt P11234)
inactive: [1] 0.022 | [2] 0.057 | [3] -0.037 | [4] -0.037 | [5] -0.025 | [6] -0.076 | [7] -0.013 | [8] 0.008 | [9] -0.015 | [10] -0.014 | [11] 0.023 | [12] 0.011 | [13] -0.034 | [14] -0.008 | [15] -0.075 | [16] 0.008 | [17] 0.05 | [18] 0.007 | [19] -0.008 | [20] 0.068

RAB6D (UniProt Q53S08)
inactive: [1] -0.012 | [2] 0.066 | [3] 0.065 | [4] 0.121 | [5] -0.034 | [6] -0.034 | [7] -0.074 | [8] -0.061 | [9] 0.054 | [10] -0.001 | [11] 0.13 | [12] -0.025 | [13] -0.058 | [14] -0.07 | [15] 0.014 | [16] 0.159 | [17] 0.045 | [18] 0.057 | [19] -0.019 | [20] 0.076

RALGAPA1 isoform 6 (UniProt Q6GYQ0)
inactive: [1] -0.052 | [2] 0.036 | [3] -0.208 | [4] -0.07 | [5] 0.015 | [6] -0.01 | [7] 0.174 | [8] 0.044 | [9] 0.165 | [10] 0.043 | [11] 0.099 | [12] 0.103 | [13] -0.01 | [14] -0.188 | [15] 0.019 | [16] 0.252 | [17] -0.05 | [18] 0 | [19] 0.039
